Measured values taken from the RNAGym collection of RNA variant scans (doi:10.1126/science.aae0568).
This sample is rich in variants without activity.

B1: tRNA (parent)
chain: GUUCCGUUGGCGUAAUGGUAACGCGUCUCCCUCCUAAGGAGAAGACUGCGGGUUCGAGUCCCGUACGGAACG

Variants of: B1
Assay: yeast fitness relative to wild type (ratio to wild type); higher = fitter; tRNA-Arg(CCU), competitive growth, 37 C, YPD
Method in brief: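 Amplicons of the tRNA-Arg(CCU) gene were sequenced, 100-nucleotide paired-end, from the start population and from each end population of a pooled yeast competition. The competition, in six parallel replicates, lasted 24 hours in YPD at 37°C. Fitness relative to wild type was calculated from changes in genotype frequencies. Genotypes had to have ≥ 100 starting reads, and estimates < 0.5 were set to 0.5.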

Yeast fitness, 0.544:
U7C G67U A70U

Yeast fitness, 0.6:
U7G C24G C27U C29A

Yeast fitness, 0.525:
U7G C55G G63A G68C

Yeast fitness, 1.03:
U7G A65G

Yeast fitness, 0.528:
U7G C27A A36C A42U U64G

Yeast fitness, 0.847:
U7G G48A

Yeast fitness, ≤ 0.5:
U7A G10C C22U
U7A G10U C34U
U7A G12C A14G A21C A70G
U7A G12C C27G C31A C46A
U7A G17A C24U C34A A40G C49G
U7A G17A G63C
U7A G17C C24G C29A A69C
U7A G18C C27G G38A G51C G58C
U7A G23A A42G C62U
U7A G25A C30U A57C
U7A G25A C30U A57C A70U
U7A G25A G44C C61A C62U C66U
U7A G39C A43C G44C U47C C62U
U7A U8A G10C A20G C27G C34G C55U
U7A U8A G56C
U7A U8C A45G G50A U54C
U7A U13G C66A
U7A U16A A21G C29G C34A A65U C66U
U7A U16C A21U U26A U47C A70G
U7C A14G G17A G48C A70U
U7C A15C A20G A70C
U7C A15C G38A A45G G52A
U7C A15G A65U A70U
U7C A21C C34G U35G G44C G50C G63A
U7C A37U A70C
U7C A37U C46G
U7C A42C U59A A69U
U7C C27G C33G G44A C62G
U7C C29A A40G C62A
U7C C29G C31A G67C
U7C C30G G56C C61U A65C
U7C C30U C33A A40U A57C
U7C C30U C61A
U7C C30U G67A
U7C C30U U59A
U7C C31A A36U
U7C C33G G63A A70G
U7C C55U C60G
U7C G9C G51C
U7C G9C G51C A69C
U7C G10A C30G A37C G52A
U7C G12A A20C A21G C24A C27A A36C
U7C G41A A42C G50C A65C
U7C G44A U47G G63C
U7C U8C A21G C31A
U7C U8C C27U G39C
U7C U13A G25A C34G G39C
U7C U26A A57C G67A A69U
U7C U26G G44A G48A G50C
U7C U28A C31U
U7G A14C A20G C22U C49G G56C
U7G A14C C24G C31A C33G G44C
U7G A14C C34G
U7G A14G C31U C55A
U7G A15C U19G C27U A37G U47C
U7G A20G C46U G68C
U7G A21C G44C A65U
U7G A45C G51C U53C
U7G C11U A20G C24U C31G
U7G C11U C27A A36C A42U U64G
U7G C11U G12C C33U C66A
U7G C22U C24U
U7G C27A C29U A40U
U7G C27G U32C A36G U53A G56A
U7G C27G U32C A36G U53A G56A C62A
U7G C27U A36C
U7G C29A C34A C62A
U7G C30A C62A
U7G C31A C55U G63A
U7G C33A A36U A57G
U7G G18A G25A C29G C34A
U7G G41C A69C
U7G G51A C55G G56C

Yeast fitness, 0.548:
U7C G48C C62U

Yeast fitness, 0.671:
U7C G23C

Yeast fitness, 0.589:
U7G C30U G38A G50A

Yeast fitness, 0.573:
U7C A37C A40C A45U A57C
